Reference: publication PMC4510537
Results are given in words; binding and its absence hold for the method and conditions named. Binding seen in cells or lysates may run through a third protein. Some entries that bind do so weakly or less than the wild type. Sequences can lack the tags named with a protein.

Biological target: HA2-CD164 (human) (UniProt Q04900)
Assay: co-IP; HEK-293 cells co-transfected with distinctly tagged CD164 and CD164 R192*, lysed 2 days later in immunoprecipitation buffer; precipitated with anti-HA (12CA5) and protein G agarose; reducing SDS-PAGE, immunoblot with anti-FLAG (M2) or anti-HA

binding: binds
B1: FLAG4-CD164 R192* (protein, UniProt Q04900 24-191)
chain: DKNTTQHPNVTTLAPISNVTSAPVTSLPLVTTPAPETCEGRNSCVSCFNVSVVNTTCFWIECKDESYCSHNSTVSDCQVGNTTDFCSVSTATPVPTANSTAKPTVQPSPSTTSKTVTTSGTTNNTVTPTSQPVRKSTFDAASFIGGIVLVLGVQAVIFFLYKFCKSKE
